Data source: PubChem BioAssay AID1259254 (NCATS, 2017)

Aim: 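Gene knock-downs that lead to re-replication, shown by excess G2 DNA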 (primary screen)
System: human HCT116 colorectal cancer cells
Knock-down reagent: single siRNA against human genes
Time to read-out: 3 days
Read-out: 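Imaged Hoechst DNA stain sorts each cell into a cycle phase by DNA amount; per plate, G2 fraction set to 0% for non-targeting and 100% for GMNN siRNA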
Scale: G2 robust z-score and G2 cells, % of GMNN control: higher = more G2 cells, more excess DNA replication
Hit rule: 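Active siRNAs have a G2 robust z of 5 or more median absolute deviations over the median, which in these data means about 38% or higher of GMNN control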
Here is an unselected part of about 59,000 reagents. Over the whole deposit, about 1,550 (2.6%) are marked active. 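G2 share is only a proxy for re-replication; each gene was hit by three separate siRNAs, and active genes were retested.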 Reagents against one gene are numbered here. Not all columns of the deposit are shown. Not stated in the record: the amount of reagent.

For RPS12P9 (ribosomal protein S12 pseudogene 9) #1 the deposit lists G2 robust z-score -0.517; G2 cells, % of GMNN control -0.673; inactive.
RPS12P9 (ribosomal protein S12 pseudogene 9) #2 scored G2 robust z-score 0.669; G2 cells, % of GMNN control 7.67; inactive.
For RPS12P9 (ribosomal protein S12 pseudogene 9) #3, the values are G2 robust z-score 0.602; G2 cells, % of GMNN control 7.2; inactive.
After knock-down of BICDL2 (BICD family like cargo adaptor 2) #1 the results were G2 robust z-score -0.615; G2 cells, % of GMNN control -1.36; inactive.
With knock-down of BICDL2 (BICD family like cargo adaptor 2) #2 the results were G2 robust z-score 0.0839; G2 cells, % of GMNN control 3.56; inactive.
After knock-down of BICDL2 (BICD family like cargo adaptor 2) #3, the record shows G2 robust z-score 0.443; G2 cells, % of GMNN control 6.08; inactive.
Against NLGN2 (neuroligin 2) #1, the values are G2 robust z-score -0.7; G2 cells, % of GMNN control -1.96; inactive.
Silencing of NLGN2 (neuroligin 2) #2 resulted in: G2 robust z-score -0.316; G2 cells, % of GMNN control 0.742; inactive.
Knock-down of NLGN2 (neuroligin 2) #3 gave: G2 robust z-score -1.03; G2 cells, % of GMNN control -4.27; inactive.

Individual results from the list.
For “G2 cells, % of GMNN control”, RPS12P9 (ribosomal protein S12 pseudogene 9) #1 shows -0.673
Under “call”, NLGN2 (neuroligin 2) #3 is entered as inactive

Further records:
Knock-down of AQP9 (aquaporin 9) #1 came out at: G2 robust z-score 2.24; G2 cells, % of GMNN control 18.7; inactive.
Knock-down of AQP9 (aquaporin 9) #2 came out at: G2 robust z-score 0.477; G2 cells, % of GMNN control 6.32; inactive.
Knock-down of AQP9 (aquaporin 9) #3 resulted in: G2 robust z-score -0.949; G2 cells, % of GMNN control -3.71; inactive.
With knock-down of OR5B12 (olfactory receptor family 5 subfamily B member 12) #1, the record shows G2 robust z-score -0.642; G2 cells, % of GMNN control -1.55; inactive.
Against OR5B12 (olfactory receptor family 5 subfamily B member 12) #2, the values are G2 robust z-score 0.288; G2 cells, % of GMNN control 4.99; inactive.
After knock-down of OR5B12 (olfactory receptor family 5 subfamily B member 12) #3, the record shows G2 robust z-score -0.56; G2 cells, % of GMNN control -0.975; inactive.
With knock-down of MRPL16 (mitochondrial ribosomal protein L16) #1, the record shows G2 robust z-score 1.37; G2 cells, % of GMNN control 12.6; inactive.
After knock-down of MRPL16 (mitochondrial ribosomal protein L16) #2, the record shows G2 robust z-score 6.43; G2 cells, % of GMNN control 48.2; active.
For MRPL16 (mitochondrial ribosomal protein L16) #3 the deposit lists G2 robust z-score 3.88; G2 cells, % of GMNN control 30.2; inactive.
